Source: paper PMC3197579
These are yes or no findings as the source states them, for the method shown. Some binding calls cover weakened binding; strength is not graded here.

Protein sequences, listed by entry. Tags and fused reporters are not part of them. Lines headed by an entry give the natural chain unless they say otherwise; changes in a name come on top. Chains listed by the source or under a name are the forms on record and can include a tag or linker.
UniProt Q13285: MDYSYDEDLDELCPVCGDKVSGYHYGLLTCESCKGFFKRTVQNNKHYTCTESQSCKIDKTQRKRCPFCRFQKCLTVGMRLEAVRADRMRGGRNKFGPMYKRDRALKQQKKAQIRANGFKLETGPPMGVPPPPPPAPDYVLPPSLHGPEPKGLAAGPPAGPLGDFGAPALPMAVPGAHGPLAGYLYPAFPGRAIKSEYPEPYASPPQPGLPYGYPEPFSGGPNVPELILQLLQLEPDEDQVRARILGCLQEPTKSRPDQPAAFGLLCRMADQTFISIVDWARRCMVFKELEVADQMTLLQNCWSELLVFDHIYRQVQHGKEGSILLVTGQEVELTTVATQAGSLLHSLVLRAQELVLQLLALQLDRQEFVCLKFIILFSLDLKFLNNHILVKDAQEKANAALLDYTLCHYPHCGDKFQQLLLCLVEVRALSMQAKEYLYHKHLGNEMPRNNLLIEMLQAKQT
NR5A1 p.Arg39Pro (Q13285, form named): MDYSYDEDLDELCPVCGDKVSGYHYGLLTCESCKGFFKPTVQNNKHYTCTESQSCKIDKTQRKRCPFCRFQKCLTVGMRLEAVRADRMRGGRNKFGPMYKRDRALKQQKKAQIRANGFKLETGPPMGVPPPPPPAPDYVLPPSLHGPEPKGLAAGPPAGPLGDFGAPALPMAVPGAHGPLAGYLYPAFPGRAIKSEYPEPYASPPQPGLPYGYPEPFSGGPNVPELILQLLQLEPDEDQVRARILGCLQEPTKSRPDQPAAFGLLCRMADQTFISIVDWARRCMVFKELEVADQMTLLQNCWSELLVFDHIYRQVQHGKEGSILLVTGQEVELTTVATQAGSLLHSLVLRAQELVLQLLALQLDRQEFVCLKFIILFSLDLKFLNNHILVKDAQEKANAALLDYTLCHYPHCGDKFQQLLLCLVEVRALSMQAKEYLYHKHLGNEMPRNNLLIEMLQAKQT
NR5A1 p.Arg313Cys (Q13285, form named): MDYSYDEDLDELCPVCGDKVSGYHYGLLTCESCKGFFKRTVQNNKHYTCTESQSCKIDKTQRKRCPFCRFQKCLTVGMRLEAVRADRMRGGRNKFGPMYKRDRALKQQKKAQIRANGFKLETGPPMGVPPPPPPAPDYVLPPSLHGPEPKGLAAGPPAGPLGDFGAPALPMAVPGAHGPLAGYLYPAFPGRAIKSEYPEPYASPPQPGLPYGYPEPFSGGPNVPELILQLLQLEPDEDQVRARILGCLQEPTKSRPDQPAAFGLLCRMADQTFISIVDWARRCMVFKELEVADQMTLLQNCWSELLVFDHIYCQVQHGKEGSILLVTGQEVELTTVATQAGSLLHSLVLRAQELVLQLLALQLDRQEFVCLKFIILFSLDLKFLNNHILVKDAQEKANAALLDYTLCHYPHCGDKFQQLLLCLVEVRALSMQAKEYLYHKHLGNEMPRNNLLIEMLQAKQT
UniProt Q08369: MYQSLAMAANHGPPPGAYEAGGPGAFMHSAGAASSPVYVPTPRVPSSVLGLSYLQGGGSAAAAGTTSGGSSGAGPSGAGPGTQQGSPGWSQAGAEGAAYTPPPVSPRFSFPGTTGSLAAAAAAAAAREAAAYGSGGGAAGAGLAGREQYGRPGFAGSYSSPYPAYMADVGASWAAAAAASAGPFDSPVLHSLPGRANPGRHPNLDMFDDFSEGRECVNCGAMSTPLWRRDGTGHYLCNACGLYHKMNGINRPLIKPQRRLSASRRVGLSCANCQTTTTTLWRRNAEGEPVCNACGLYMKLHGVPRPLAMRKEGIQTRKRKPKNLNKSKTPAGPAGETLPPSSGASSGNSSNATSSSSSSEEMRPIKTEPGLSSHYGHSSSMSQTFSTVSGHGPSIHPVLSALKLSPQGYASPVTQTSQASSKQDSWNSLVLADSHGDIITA

Legend:
Assay in all cases: far-Western, overlay or dot blot; in vitro translated NR5A1 proteins fractionated on 10% SDS-PAGE, transferred to nitrocellulose, treated with 6 to 0.19 M guanidine HCl in buffer A (20 mM HEPES pH 7.5, 50 mM NaCl, 1 mM EDTA, 1 mM DTT, 10% glycerol), blocked with 1% BSA; incubated overnight at 4°C with in vitro translated GATA4 (2 µg/ml) in buffer A with 1% BSA and 0.1% Tween-20; bound GATA4 detected with anti-GATA4 antibody
[1] = molecular target: wild-type NR5A1 (steroidogenic factor-1) (human) (UniProt Q13285)
NR5A1 p.Arg39Pro (human) = NR5A1 p.Arg39Pro (human) (UniProt Q13285)
[2] = molecular target: NR5A1 p.Arg313Cys (human) (UniProt Q13285)

Measured: binding

GATA4 (from UniProt Q08369 1-441)
binds: all assays above
